PubChem BioAssay AID504808 | Drosophila RNAi Screening Center | 2011
Aim: 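Fly genes required to hold E2F transcription in check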 (primary screen). System: Drosophila S2 cells. Reagent: long dsRNA against Drosophila genes. Measured: 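Firefly luciferase driven by E2F sites, normalised to Renilla luciferase on the same minimal promoter, measured by plate reader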. Reading the numbers: E2F firefly: higher = more E2F reporter activity; Renilla normaliser: higher = more normaliser reporter signal. Rule for the call: 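Called active if the normalised E2F reporter went up by over 50%; the cutoff is arbitrary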.
The screen tested about 21,000 reagents; below is a random part of those that have a named target and a result. In the full data, 18 (0.084%) are marked active. 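Raw counts without plate normalisation, one of two replicates; the ratio scores behind the calls were not deposited.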 Unmarked entries are inactive. The numbers tell different reagents against one gene apart. The record does not give: the amount of reagent, the time to read-out.

| gene knocked down | reagent | E2F firefly, rep 1 | Renilla normaliser, rep 1 |
| --- | --- | --- | --- |
| CG7044 | 1 | 1.24e5 | 6631 |
| lab (labial) | 1 | 1.13e5 | 5588 |
| CG12713 | 1 | 67257 | 3785 |
| CG7453 | 1 | 1.50e5 | 5816 |
| CR42532 (pseudo) | 1 | 92363 | 4452 |
| CG11655 | 1 | 2.05e5 | 9349 |
| CG9030 | 1 | 2.33e5 | 7136 |
| PH4alphaSG2 (prolyl-4-hydroxylase-alpha SG2) | 1 | 1.18e5 | 6170 |
| Adgf-E (Adenosine deaminase-related growth factor E) | 1 | 98472 | 3827 |
| CG3558 | 1 | 76608 | 4095 |
| COX1 (retired record) | 1 | 1.42e5 | 7050 |
| CG14011 | 1 | 1.38e5 | 5092 |
| mRpL17 (mitochondrial ribosomal protein L17) | 1 | 1.05e5 | 4438 |
| Akr1B (Aldo-keto reductase 1B) | 1 | 83476 | 3499 |
| Pepck2 (Phosphoenolpyruvate carboxykinase 2) | 1 | 1.66e5 | 4921 |
| Als2 (Amyotrophic lateral sclerosis 2) | 1 | 74164 | 3492 |
| CG15130 | 1 | 1.03e5 | 4364 |
| Snap24 (Synaptosomal-associated protein 24kDa) | 1 | 1.39e5 | 6783 |
| stol (stolid) | 1 | 97367 | 4255 |
| Ranbp16 | 1 | 1.44e5 | 5644 |
| jhamt (juvenile hormone acid methyltransferase) | 1 | 64025 | 3121 |
| Cad99C (Cadherin 99C) | 1 | 1.27e5 | 6400 |
| Cad99C (Cadherin 99C) | 2 | 1938 | 1076 |
| Galphao (G protein alpha subunit o) | 1 | 3289 | 209 |
| MYPT-75D (Myosin phosphatase targeting subunit 75D) | 1 | 73616 | 3960 |
| or (orange) | 1 | 1.09e5 | 4082 |
| CG2887 | 1 | 1.18e5 | 5504 |
| CG9582 | 1 | 1.50e5 | 5258 |
| Gar1 (Gar1 ribonucleoprotein) | 1 | 90538 | 4010 |
| DIP-iota (Dpr-interacting protein iota) | 1 | 1.49e5 | 5370 |
| CG12744 | 1 | 2867 | 223 |
| CG34382 | 1 | 1.34e5 | 4880 |
| CG34382 | 2 | 1.02e5 | 5375 |
| CG34382 | 3 | 98225 | 3561 |
| CG9588 | 1 | 1.05e5 | 5717 |
| CG17994 | 1 | 1.12e5 | 4664 |
| eco (Establishment of cohesion) | 1 | 73945 | 4997 |
| sick (sickie) | 1 | 84525 | 3453 |
| sick (sickie) | 2 | 94286 | 3704 |
| sick (sickie) | 3 | 94830 | 3881 |
| sick (sickie) | 4 | 1.02e5 | 4528 |
| sick (sickie) | 5 | 95963 | 3675 |
| Porin2 | 1 | 1.74e5 | 5930 |
| jtb (jetboil) | 1 | 1.45e5 | 4986 |
| CG31050 | 1 | 91104 | 2748 |
| Sfp38D (Seminal fluid protein 38D) | 1 | 1.19e5 | 5193 |
| CG2614 | 1 | 49869 | 2972 |
| O-fut2 (O-fucosyltransferase 2) | 1 | 1969 | 916 |
| l(3)05822 (lethal (3) 05822) | 1 | 68043 | 2829 |
| Cpsf6 (Cleavage and polyadenylation specific factor 6) | 1 | 63846 | 3629 |
| UQCR-C2 (Ubiquinol-cytochrome c reductase core protein 2) | 1 | 1.55e5 | 7527 |
| arg (arginase) | 1 | 1964 | 808 |
| CG12849 | 1 | 1.20e5 | 4516 |
| RIC-3 (RIC3 acetylcholine receptor chaperone) | 1 | 82857 | 3688 |
| RIC-3 (RIC3 acetylcholine receptor chaperone) | 2 | 87494 | 3743 |
| inc (insomniac) | 1 | 1.27e5 | 6161 |
| inc (insomniac) | 2 | 1862 | 836 |

Entries listed so far whose gene name begins with J or j:
| gene knocked down | reagent | E2F firefly, rep 1 | Renilla normaliser, rep 1 |
| --- | --- | --- | --- |
| jhamt (juvenile hormone acid methyltransferase) | 1 | 64025 | 3121 |
| jtb (jetboil) | 1 | 1.45e5 | 4986 |
